Assay results: patent US20190389961A1
No constants are given. Whether binding was seen depends on the method and setting. Some binding calls cover weakened binding; strength is not graded here.

Tests used:
Assay in all cases: flow cytometry, Hek-293T cells expressing the mutant
[1] = target: T1, human CD39 mutant 10B (human) (UniProt P49961)
T1 sequence: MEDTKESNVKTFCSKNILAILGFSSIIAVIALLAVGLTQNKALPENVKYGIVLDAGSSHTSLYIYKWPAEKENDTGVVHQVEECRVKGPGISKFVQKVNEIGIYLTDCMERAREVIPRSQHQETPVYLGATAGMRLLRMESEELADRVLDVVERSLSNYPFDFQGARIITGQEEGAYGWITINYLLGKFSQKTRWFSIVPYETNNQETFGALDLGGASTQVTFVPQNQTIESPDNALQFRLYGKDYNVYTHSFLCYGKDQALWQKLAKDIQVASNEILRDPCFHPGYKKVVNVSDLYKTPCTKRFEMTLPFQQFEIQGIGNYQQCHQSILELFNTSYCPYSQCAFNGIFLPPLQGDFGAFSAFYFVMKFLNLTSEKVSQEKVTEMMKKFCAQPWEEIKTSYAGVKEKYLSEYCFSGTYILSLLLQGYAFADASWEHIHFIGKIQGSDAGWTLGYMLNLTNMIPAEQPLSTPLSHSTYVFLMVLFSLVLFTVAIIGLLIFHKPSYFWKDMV

[2] = target: T2, human CD39 mutant 3 (human) (UniProt P49961)
T2 sequence: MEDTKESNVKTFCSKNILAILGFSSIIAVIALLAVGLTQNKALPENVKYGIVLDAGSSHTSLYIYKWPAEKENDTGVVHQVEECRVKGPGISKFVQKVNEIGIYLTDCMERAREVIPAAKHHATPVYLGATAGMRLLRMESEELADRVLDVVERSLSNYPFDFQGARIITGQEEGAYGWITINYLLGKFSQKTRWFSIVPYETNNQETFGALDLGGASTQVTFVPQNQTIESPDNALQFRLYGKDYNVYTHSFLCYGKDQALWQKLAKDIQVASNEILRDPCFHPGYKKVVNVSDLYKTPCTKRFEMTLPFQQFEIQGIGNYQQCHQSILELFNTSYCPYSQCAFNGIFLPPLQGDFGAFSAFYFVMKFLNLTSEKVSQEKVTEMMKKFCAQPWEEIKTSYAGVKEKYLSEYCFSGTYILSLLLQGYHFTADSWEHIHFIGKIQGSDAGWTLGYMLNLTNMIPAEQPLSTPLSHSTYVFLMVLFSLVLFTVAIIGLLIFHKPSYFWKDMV

[3] = target: T3, human CD39 mutant 7 (human) (UniProt P49961)
T3 sequence: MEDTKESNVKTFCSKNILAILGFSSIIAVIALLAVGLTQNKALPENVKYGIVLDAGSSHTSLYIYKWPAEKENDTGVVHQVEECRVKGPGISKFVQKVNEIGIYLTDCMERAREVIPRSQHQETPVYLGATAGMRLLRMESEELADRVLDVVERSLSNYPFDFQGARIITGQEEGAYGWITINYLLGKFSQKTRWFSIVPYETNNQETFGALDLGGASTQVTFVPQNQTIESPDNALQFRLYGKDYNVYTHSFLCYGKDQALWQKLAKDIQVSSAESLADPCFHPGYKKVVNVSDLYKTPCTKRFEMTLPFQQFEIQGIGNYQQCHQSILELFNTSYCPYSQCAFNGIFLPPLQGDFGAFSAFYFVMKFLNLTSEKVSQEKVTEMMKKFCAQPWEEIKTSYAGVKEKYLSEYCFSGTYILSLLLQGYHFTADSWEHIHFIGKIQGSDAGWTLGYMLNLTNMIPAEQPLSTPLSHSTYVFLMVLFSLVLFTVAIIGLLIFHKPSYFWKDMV

[4] = target: T4, human CD39 mutant 4 (human) (UniProt P49961)
T4 sequence: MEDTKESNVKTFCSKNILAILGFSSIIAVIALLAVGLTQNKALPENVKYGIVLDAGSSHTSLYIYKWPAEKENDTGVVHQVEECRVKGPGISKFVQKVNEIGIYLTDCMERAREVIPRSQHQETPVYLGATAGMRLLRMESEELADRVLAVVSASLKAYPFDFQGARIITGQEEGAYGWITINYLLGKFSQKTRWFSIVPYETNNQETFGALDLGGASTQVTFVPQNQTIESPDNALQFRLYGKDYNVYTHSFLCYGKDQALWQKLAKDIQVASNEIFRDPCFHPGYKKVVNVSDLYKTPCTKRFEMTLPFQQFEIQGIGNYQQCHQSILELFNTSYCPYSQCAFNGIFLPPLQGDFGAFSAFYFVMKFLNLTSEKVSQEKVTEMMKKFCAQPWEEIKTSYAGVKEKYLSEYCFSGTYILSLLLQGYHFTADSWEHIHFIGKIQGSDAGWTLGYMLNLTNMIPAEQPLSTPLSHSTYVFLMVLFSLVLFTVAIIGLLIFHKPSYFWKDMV

[5] = target: T5, human CD39 mutant 1 (human) (UniProt P49961)
T5 sequence: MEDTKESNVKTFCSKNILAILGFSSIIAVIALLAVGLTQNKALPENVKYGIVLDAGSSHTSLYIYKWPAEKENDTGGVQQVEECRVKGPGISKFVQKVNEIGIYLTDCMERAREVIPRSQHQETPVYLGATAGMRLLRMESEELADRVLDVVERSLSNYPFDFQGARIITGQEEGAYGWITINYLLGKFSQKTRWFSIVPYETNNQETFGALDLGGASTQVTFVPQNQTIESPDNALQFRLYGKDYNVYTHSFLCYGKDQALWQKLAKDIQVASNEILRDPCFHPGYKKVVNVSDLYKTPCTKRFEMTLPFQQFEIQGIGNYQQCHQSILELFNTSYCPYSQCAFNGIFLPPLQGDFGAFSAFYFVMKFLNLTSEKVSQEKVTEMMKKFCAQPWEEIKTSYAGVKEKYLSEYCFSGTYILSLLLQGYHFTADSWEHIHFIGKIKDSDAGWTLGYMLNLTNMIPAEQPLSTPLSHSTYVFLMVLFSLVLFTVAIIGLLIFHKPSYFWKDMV

- binding [1]: binds
- binding [2]: binds
- binding [3]: binds
- binding [4]: binds
- binding [5]: binds
B1: antibody I-399 (antibody, V domains shown)
VH: PVQLQQPGAEVVMPGASVKLSCKASGYTFTSFWMNWMRQRPGQGLEWIGEIDPSDFYTNSNQRFKGKATLTVDKSSSTAYMQLSSLTSEDSAVYFCARGDFGWYFDVWGTGTSVTVSS
VL: EIVLTQSPTTMTSSPGEKITFTCSASSSINSNYLHWYQQKPGFSPKLLIYRTSNLASGVPTRFSGSGSGTSYSLTIGTMEAEDVATYYCQQGSSLPRTFGGGTKLEIK
